Measurements taken from PMC10573421.
No constants are given. Whether binding was seen depends on the method and setting. Binding seen in cells or lysates may run through a third protein. These calls come from enrichment with a bait or labelling near it, and not all partners need be listed.

By UniProt entry, the sequences of proteins in these tests, tags left out. Residues count along the entry.
UniProt P11021, residues 19-654: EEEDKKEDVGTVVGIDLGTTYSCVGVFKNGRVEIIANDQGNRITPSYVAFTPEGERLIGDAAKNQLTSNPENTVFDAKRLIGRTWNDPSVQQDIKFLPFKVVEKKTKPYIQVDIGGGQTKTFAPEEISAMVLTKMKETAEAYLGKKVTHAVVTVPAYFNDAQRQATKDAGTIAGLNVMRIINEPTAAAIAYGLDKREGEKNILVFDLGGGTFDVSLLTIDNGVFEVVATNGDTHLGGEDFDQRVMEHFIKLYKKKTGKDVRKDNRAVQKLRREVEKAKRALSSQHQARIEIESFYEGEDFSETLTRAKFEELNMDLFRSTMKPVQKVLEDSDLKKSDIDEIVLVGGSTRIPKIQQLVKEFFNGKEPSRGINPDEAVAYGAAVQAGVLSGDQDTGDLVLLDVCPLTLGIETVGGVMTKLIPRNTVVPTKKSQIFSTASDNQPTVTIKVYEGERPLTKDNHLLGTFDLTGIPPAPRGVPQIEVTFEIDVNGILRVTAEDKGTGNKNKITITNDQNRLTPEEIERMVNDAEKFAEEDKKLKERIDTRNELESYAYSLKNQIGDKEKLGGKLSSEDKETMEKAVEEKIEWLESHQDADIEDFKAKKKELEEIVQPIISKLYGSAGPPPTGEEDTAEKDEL
UniProt P11142: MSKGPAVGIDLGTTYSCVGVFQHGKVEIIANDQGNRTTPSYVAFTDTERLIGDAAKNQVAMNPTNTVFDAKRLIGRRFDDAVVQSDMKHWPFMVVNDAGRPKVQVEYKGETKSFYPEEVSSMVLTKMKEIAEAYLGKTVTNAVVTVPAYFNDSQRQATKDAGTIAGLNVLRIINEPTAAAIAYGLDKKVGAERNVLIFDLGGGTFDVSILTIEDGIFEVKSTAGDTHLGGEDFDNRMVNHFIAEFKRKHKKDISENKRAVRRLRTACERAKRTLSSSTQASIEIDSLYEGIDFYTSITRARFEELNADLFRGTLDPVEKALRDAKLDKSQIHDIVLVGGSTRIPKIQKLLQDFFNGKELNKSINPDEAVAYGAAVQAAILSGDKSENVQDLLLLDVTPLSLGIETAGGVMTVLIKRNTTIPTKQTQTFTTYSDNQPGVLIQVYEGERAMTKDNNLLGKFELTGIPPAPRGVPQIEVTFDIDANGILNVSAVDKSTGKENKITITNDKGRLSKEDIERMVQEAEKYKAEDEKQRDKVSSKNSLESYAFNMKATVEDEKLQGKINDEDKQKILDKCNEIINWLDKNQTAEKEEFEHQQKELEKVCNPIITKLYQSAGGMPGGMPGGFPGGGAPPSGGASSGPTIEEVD
UniProt P08238: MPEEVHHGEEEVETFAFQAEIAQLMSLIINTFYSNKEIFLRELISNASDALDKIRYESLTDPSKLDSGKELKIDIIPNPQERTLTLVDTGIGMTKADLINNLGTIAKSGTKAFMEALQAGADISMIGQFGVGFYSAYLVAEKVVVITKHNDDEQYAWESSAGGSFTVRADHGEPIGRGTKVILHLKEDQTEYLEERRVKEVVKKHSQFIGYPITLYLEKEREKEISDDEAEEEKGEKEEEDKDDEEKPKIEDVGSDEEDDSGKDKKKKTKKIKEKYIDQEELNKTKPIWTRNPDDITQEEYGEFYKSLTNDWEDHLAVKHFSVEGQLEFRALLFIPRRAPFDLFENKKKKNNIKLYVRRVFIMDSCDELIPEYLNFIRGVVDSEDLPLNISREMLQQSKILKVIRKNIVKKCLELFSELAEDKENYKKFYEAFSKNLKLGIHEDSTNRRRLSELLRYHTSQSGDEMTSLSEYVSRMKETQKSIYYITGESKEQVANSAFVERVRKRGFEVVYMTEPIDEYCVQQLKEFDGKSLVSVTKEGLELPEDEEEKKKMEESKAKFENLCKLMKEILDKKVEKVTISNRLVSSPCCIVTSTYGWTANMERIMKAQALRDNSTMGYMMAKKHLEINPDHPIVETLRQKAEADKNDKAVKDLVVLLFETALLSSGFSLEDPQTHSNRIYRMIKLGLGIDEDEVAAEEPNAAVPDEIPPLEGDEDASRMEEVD
UniProt P0DMV8: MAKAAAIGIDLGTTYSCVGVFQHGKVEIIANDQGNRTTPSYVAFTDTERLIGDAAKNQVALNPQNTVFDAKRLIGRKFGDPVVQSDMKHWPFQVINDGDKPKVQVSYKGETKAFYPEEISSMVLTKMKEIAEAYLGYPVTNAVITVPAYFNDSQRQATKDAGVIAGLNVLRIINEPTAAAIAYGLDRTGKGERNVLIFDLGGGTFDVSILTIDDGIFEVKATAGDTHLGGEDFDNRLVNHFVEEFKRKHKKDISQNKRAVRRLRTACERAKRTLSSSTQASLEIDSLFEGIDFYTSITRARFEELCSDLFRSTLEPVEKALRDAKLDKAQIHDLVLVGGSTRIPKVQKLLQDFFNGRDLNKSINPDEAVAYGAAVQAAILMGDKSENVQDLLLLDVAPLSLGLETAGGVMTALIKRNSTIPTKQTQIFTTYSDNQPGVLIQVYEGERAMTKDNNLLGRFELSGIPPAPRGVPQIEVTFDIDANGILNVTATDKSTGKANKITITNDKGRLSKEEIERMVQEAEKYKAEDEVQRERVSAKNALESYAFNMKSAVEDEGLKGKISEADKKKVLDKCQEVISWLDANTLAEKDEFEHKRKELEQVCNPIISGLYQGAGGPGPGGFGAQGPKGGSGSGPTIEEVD
UniProt P07355: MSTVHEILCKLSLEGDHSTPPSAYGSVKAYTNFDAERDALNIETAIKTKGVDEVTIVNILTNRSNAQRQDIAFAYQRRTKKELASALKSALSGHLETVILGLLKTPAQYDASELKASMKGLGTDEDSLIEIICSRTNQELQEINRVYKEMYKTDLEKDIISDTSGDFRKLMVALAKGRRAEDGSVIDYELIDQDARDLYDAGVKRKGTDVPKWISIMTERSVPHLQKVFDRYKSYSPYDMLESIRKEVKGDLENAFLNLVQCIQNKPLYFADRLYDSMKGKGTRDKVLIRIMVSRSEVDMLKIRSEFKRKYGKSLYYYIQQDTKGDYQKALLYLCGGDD
UniProt P54652: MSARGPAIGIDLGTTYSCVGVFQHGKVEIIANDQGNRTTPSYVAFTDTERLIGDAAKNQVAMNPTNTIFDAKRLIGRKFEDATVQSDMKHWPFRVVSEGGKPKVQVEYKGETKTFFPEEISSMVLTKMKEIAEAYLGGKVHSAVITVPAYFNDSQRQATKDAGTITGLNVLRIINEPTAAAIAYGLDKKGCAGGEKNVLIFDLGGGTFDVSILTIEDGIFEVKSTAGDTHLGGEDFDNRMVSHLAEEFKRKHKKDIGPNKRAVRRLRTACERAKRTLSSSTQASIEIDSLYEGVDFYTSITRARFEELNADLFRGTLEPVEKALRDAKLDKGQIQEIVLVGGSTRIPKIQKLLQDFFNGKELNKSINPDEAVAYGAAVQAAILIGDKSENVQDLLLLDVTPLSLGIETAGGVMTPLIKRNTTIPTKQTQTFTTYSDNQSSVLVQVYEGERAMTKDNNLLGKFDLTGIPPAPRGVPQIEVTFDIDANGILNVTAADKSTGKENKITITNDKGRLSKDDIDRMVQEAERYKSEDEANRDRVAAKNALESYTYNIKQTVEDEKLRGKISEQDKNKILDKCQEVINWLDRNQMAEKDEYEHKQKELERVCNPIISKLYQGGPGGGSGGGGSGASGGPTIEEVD

B1: PDIA6 (protein, UniProt Q15084 20-440)
chain: LYSSSDDVIELTPSNFNREVIQSDSLWLVEFYAPWCGHCQRLTPEWKKAATALKDVVKVGAVDADKHHSLGGQYGVQGFPTIKIFGSNKNRPEDYQGGRTGEAIVDAALSALRQLVKDRLGGRSGGYSSGKQGRSDSSSKKDVIELTDDSFDKNVLDSEDVWMVEFYAPWCGHCKNLEPEWAAAASEVKEQTKGKVKLAAVDATVNQVLASRYGIRGFPTIKIFQKGESPVDYDGGRTRSDIVSRALDLFSDNAPPPELLEIINEDIAKRTCEEHQLCVVAVLPHILDTGAAGRNSYLEVLLKLADKYKKKMWGWLWTEAGAQSELETALGIGGFGYPAMAAINARKMKFALLKGSFSEQGINEFLRELSFGRGSTAPVGGGAFPTIVEREPWDGRDGELPVEDDIDLSDVELDDLGKDEL
B2: protein disulfide-isomerase family A member 4 (PDIA4) (protein, UniProt P13667 21-645)
chain: VAGAEGPDEDSSNRENAIEDEEEEEEEDDDEEEDDLEVKEENGVLVLNDANFDNFVADKDTVLLEFYAPWCGHCKQFAPEYEKIANILKDKDPPIPVAKIDATSASVLASRFDVSGYPTIKILKKGQAVDYEGSRTQEEIVAKVREVSQPDWTPPPEVTLVLTKENFDEVVNDADIILVEFYAPWCGHCKKLAPEYEKAAKELSKRSPPIPLAKVDATAETDLAKRFDVSGYPTLKIFRKGRPYDYNGPREKYGIVDYMIEQSGPPSKEILTLKQVQEFLKDGDDVIIIGVFKGESDPAYQQYQDAANNLREDYKFHHTFSTEIAKFLKVSQGQLVVMQPEKFQSKYEPRSHMMDVQGSTQDSAIKDFVLKYALPLVGHRKVSNDAKRYTRRPLVVVYYSVDFSFDYRAATQFWRSKVLEVAKDFPEYTFAIADEEDYAGEVKDLGLSESGEDVNAAILDESGKKFAMEPEEFDSDTLREFVTAFKKGKLKPVIKSQPVPKNNKGPVKVVVGKTFDSIVMDPKKDVLIEFYAPWCGHCKQLEPVYNSLAKKYKGQKGLVIAKMDATANDVPSDRYKVEGFPTIYFAPSGDKKNPVKFEGGDRDLEHLSKFIEEHATKLSRTKEEL

These molecules were tested against JICD1-HA-FLAG (JAG1 intracellular domain) (UniProt P78504) (assay: affinity purification with mass spectrometry; IP against HA from LN18 cells expressing JICD1-HA-FLAG; bound proteins identified by mass spectrometry).

binding, binds:
heat shock protein family A member 5 (HSPA5) (from UniProt P11021 19-654)
HSP90AA1 (from UniProt P07900 1-732)
HSPA8 (HSC70) (from UniProt P11142 1-646)
HSP90AB1 (from UniProt P08238 1-724)
HSPA1A (from UniProt P0DMV8 1-641)
Annexin A2 (ANXA2), endogenous (from UniProt P07355 1-339)
HSPA2 (from UniProt P54652 1-639)
B1
B2
